Test results published in PubChem BioAssay AID196 (DTP/NCI, 2004).
The list is a part of this screen's results and no random one: it is rich in T/C values a quarter to a half above the control, in often repeated tests (any T/C) and in doses without a T/C. Other doses and runs of a compound stand elsewhere. T/C: endpoint of the treated group in % of that of the vehicle group. Some doses have a count of surviving animals in place of a T/C: the source holds a T/C of zero for them, seemingly a mark for toxic or unscored doses. Some doses without a T/C left all or most animals alive at the check, yet need not have been tolerated: survival well below the control is almost never listed, so the zero probably covers shortened survival too. Counts of survivors are from the toxicity check (mostly the fifth day) where no day follows; animals may have died later. Schedules are NCI's codes, taken here to give the interval after Q, in days (D) or hours (H), and the number of doses after X. Some molecules as drawn cover several salts, stereoisomers or complexes of the source; a dose is that of the sample tested. Additions like (4×) stand for listed records that agree. Some doses were run more than once; the results are listed from low to high. Where survival is the endpoint, the PubChem record calls one and a half times the control and up active, and a quarter to a half above the control has no call in these data; cut-offs in other NCI protocols can differ. Some T/C values carry the count of animals alive at the toxicity check (mostly the fifth day); without a count, all were alive then.

Tested on: BDF1 mice, intracerebral B16 melanoma, median survival T/C
Test: NCI In Vivo Anticancer Drug Screen. Data for tumor model B16 Melanoma (intracerebral) in B6D2F1 (BDF1) mice
Conditions: T/C endpoint: median survival time, higher T/C = longer survival
Procedure: The antitumor activity of compounds was measured in mice bearing transplantable tumors. Survival or tumor size were measured and the results are expressed as the measurement made in the treated group (T) divided by the measurement made in the vehicle treated control group (C). The tumor model used in this assay is B16 Melanoma (intracerebral) in B6D2F1 (BDF1) mice

[1] = dose: 16.0 mg/kg/injection, schedule: Q01DX009 (ip), vehicle: saline with Tween-80
[2] = dose: 32.0 mg/kg/injection, schedule: Q01DX009 (ip), vehicle: saline with Tween-80
[3] = dose: 64.0 mg/kg/injection, schedule: Q01DX009 (ip), vehicle: saline with Tween-80

With `CC(=O)OCC1C(=O)OCC1C(=O)N1Cc2cc3ccccc3nc2C1` (configuration not stated) the survivor count (dose: 8.0 mg/kg/injection, schedule: Q01DX009 (ip), vehicle: saline with Tween-80) was 8 of 10, the survivor count [1] was 5 of 10 and the survivor count [2] was 8 of 10. For the same compound, the survivor count [3] was 10 of 10 and the survivor count (dose: 128.0 mg/kg/injection, schedule: Q01DX009 (ip), vehicle: saline with Tween-80) was 5 of 10.
For `COC(COC(=O)N1CCN(C=O)CC1)C1=C(N2CC2)C(=O)C(C)=C(N2CC2)C1=O` (configuration not stated), the survivor count (dose: 12.0 mg/kg/injection, schedule: Q01DX009 (ip), vehicle: saline) was 10 of 10.
For `CN(N=O)C(=O)N[C@@H](C=O)[C@@H](O)[C@H](O)[C@H](O)CO`, the survivor count (dose: 0.19 mg/kg/injection, schedule: Q01DX009 (ip), vehicle: citric acid) was 0 of 10, the survivor count (dose: 0.39 mg/kg/injection, schedule: Q01DX009 (ip), vehicle: citric acid) was 0 of 10 and the survivor count (dose: 0.78 mg/kg/injection, schedule: Q01DX009 (ip), vehicle: citric acid) was 0 of 10. For the same compound, the survivor count (dose: 1.0 mg/kg/injection, schedule: Q01DX009 (ip), vehicle: citric acid) was 0 of 10, the survivor count (dose: 1.56 mg/kg/injection, schedule: Q01DX009 (ip), vehicle: citric acid) was 0 of 10 and the survivor count (dose: 2.0 mg/kg/injection, schedule: Q01DX009 (ip), vehicle: citric acid) was 0 of 10. The survivor count (dose: 3.12 mg/kg/injection, schedule: Q01DX009 (ip), vehicle: citric acid) was 0 of 10, the survivor count (dose: 4.0 mg/kg/injection, schedule: Q01DX009 (ip), vehicle: citric acid) was 0 of 10 and the survivor count (dose: 6.25 mg/kg/injection, schedule: Q01DX009 (ip), vehicle: citric acid) was 0 of 10. The survivor count (dose: 8.0 mg/kg/injection, schedule: Q01DX009 (ip), vehicle: citric acid) was 0 of 10, the survivor count (dose: 12.5 mg/kg/injection, schedule: Q01DX009 (ip), vehicle: citric acid) was 0 of 10 and the survivor count (dose: 25.0 mg/kg/injection, schedule: Q01DX009 (ip), vehicle: citric acid) was 0 of 10. The survivor count (dose: 50.0 mg/kg/injection, schedule: Q01DX009 (ip), vehicle: citric acid) was 0 of 10, the survivor count (dose: 100.0 mg/kg/injection, schedule: Q01DX009 (ip), vehicle: citric acid) was 0 of 10 and the survivor count (dose: 200.0 mg/kg/injection, schedule: Q01DX009 (ip), vehicle: citric acid) was 0 of 10. For the same compound, the survivor count (dose: 0.25 micrograms/kg/injection, schedule: Q01DX009 (ip), vehicle: citric acid) was 9 of 10, the survivor count (dose: 0.5 micrograms/kg/injection, schedule: Q01DX009 (ip), vehicle: citric acid) was 0 of 10 and the survivor count (dose: 1.0 micrograms/kg/injection, schedule: Q01DX009 (ip), vehicle: citric acid) was 0 of 10. For the same compound, the survivor count (dose: 2.0 micrograms/kg/injection, schedule: Q01DX009 (ip), vehicle: citric acid) was 0 of 10, the survivor count (dose: 5.0 micrograms/kg/injection, schedule: Q01DX009 (ip), vehicle: citric acid) was 0 of 10 and the survivor count (dose: 10.0 micrograms/kg/injection, schedule: Q01DX009 (ip), vehicle: citric acid) was 0 of 10.
For `COCC(O)Cn1ccnc1[N+](=O)[O-]` (configuration not stated), the survivor count (dose: 512.0 mg/kg/injection, schedule: Q01DX009 (ip), vehicle: Klucel (hydroxypropylcellulose) (HPC)) was 10 of 10.
With `O=CC(NC(=O)N(CCF)N=O)C(O)C(O)C(O)CO` (configuration not stated) the T/C (dose: 90.0 mg/kg/injection, schedule: Q01DX001 (ip), vehicle: Klucel (hydroxypropylcellulose) (HPC)) was 126 % of control [7 of 10 alive on day 6] and the survivor count (dose: 135.0 mg/kg/injection, schedule: Q01DX001 (ip), vehicle: Klucel (hydroxypropylcellulose) (HPC)) was 6 of 10 on day 6.
In the case of `CCCCCN(C)/N=N/c1nc[nH]c1C(N)=O`, the T/C (dose: 16.0 mg/kg/injection, schedule: Q01DX005 (ip), vehicle: saline with Tween-80) is reported as 132 % of control [9 of 10 alive], the T/C (dose: 64.0 mg/kg/injection, schedule: Q01DX005 (ip), vehicle: saline with Tween-80) is reported as 140 % of control [9 of 10 alive] and the survivor count (dose: 128.0 mg/kg/injection, schedule: Q01DX005 (ip), vehicle: saline with Tween-80) is reported as 10 of 10. The survivor count (dose: 256.0 mg/kg/injection, schedule: Q01DX005 (ip), vehicle: saline with Tween-80) was 9 of 10.
With `CN(C)CC(=O)c1ccc(O)c(O)c1` the T/C (dose: 100.0 mg/kg/injection, schedule: Q01DX005 (ip), vehicle: saline) was 125 % of control and the survivor count (dose: 400.0 mg/kg/injection, schedule: Q01DX005 (ip), vehicle: saline) was 10 of 10.
`OC(C1CO1)C(O)C1CO1` (configuration not stated) was tested, and the T/C (dose: 4.0 mg/kg/injection, schedule: Q01DX009 (ip), vehicle: saline) was 129 and 144 % of control [5 of 6 alive].
For `O=C1c2ccccc2C(=O)c2c(NCCNCCO)ccc(NCCNCCO)c21`, the survivor count (dose: 1.0 mg/kg/injection, schedule: Q01DX005 (ip), vehicle: saline with Tween-80) was 8 of 10, the survivor count (dose: 1.0 mg/kg/injection, schedule: Q01DX005 (ip), vehicle: saline) was 4 of 10 and the survivor count (dose: 2.0 mg/kg/injection, schedule: Q01DX005 (ip), vehicle: saline with Tween-80) was 8 of 10. For the same compound, the survivor count (dose: 2.0 mg/kg/injection, schedule: Q01DX005 (ip), vehicle: saline) was 8 of 10, the survivor count (dose: 4.0 mg/kg/injection, schedule: Q01DX005 (ip), vehicle: saline with Tween-80) was 6 of 10 and 7 of 10 and the survivor count (dose: 4.0 mg/kg/injection, schedule: Q01DX005 (ip), vehicle: saline) was 7 of 10. For the same compound, the survivor count [1] was 10 of 10, the survivor count [2] was 10 of 10 (2×) and the survivor count (dose: 32.0 mg/kg/injection, schedule: Q01DX009 (ip), vehicle: saline) was 9 of 10. The survivor count (dose: 64.0 mg/kg/injection, schedule: Q01DX005 (ip), vehicle: Klucel (hydroxypropylcellulose) (HPC)) was 9 of 10 and the survivor count [3] was 6 of 10 and 9 of 10.
With `O=NN(CCCl)C(=O)NC1CCC(=O)NC1=O` (configuration not stated) the T/C (dose: 1.0 mg/kg/injection, schedule: Q01DX009 (ip), vehicle: saline with Tween-80) was 128 % of control [9 of 10 alive], the T/C (dose: 10.8 mg/kg/injection, schedule: Q01DX001 (ip), vehicle: other) was 128 % of control and the T/C (dose: 30.0 mg/kg/injection, schedule: Q01DX001 (ip), vehicle: other) was 146 % of control. The survivor count (dose: 33.3 mg/kg/injection, schedule: Q01DX001 (ip), vehicle: Klucel (hydroxypropylcellulose) (HPC)) was 9 of 10 on day 6, the survivor count (dose: 50.0 mg/kg/injection, schedule: Q01DX001 (ip), vehicle: other) was 10 of 10 and the survivor count (dose: 60.0 mg/kg/injection, schedule: Q01DX001 (ip), vehicle: Klucel (hydroxypropylcellulose) (HPC)) was 10 of 10 on day 6.
With `CS(C)=O` the survivor count (dose: 1000.0 mg/kg/injection, schedule: Q01DX005 (ip), vehicle: saline) was 10 of 10.
For `COc1cc([C@@H]2c3cc4c(cc3[C@@H](OC3OC5CO[C@@H](c6cccs6)OC5C(O)C3O)[C@H]3COC(=O)[C@H]23)OCO4)cc(OC)c1O` (some centres not stated), the survivor count (dose: 4.0 mg/kg/injection, schedule: Q01DX009 (ip), vehicle: water) was 10 of 10 and the survivor count (dose: 8.0 mg/kg/injection, schedule: Q01DX009 (ip), vehicle: saline) was 9 of 10.
